# Some of the results follow.
# B1: PX9961KLbvu-535-38-535 (Bacteroides vulgatus) (protein)
# chain: DKAYTDAESYTKGLHKIYSVWALSGQDGSSSSDISGLDAGNTALLRCWWTLQEQPTDEMKNAWNDAWCTEVNYMTWTTNKVEPIEGVYQRCMYIVALVNEFLKNIPNAPESIDKESYIAQARFNRAFAYYVLMDMFALPPFITEKNYSIEPAPLSREDLFNWIEAELNEIKPNLPSPRSEYGVADQAVASALLARMYLNAEIYTGKARYTECINACNEVIKAGYQLADNYADLFKADNGENPDTKKEIIYPIIFDGDKTQSWGMAAIIIGARGAEDKDVLLAHSGVDQGWAGFRATSNLVHLFDFQNDEEPKASEIQDKRGIFYDKGRSIDITSSVSGTFETEGWSVFKFSNLNSNGQPGKNTLWVDTDFPMFRLGDIYLMYAEAVARGGEGSKASAVEYINALRKRAYGDDKHNISENWLEENNFRNLLDERGRELYWEGIRRTDLVRFDLLTSGSYTWDFKGGINTGVGVNKRYNVYPIPVTDLTVNGNLQQNEGY
# Legend:
# Assay in all cases: glycan array binding signal (z-score within array); higher = stronger binding
# Conditions in all cases: glycan notation: IUPAC condensed, linker removed
# [1] = biological target: GlcNAc(b1-2)Gal(b1-3)GalNAc
# How it was run: (§1)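 Columns mapping to the same glycan were averaged after glycan names were converted to IUPAC-condensed notation. The data come from 3228 arrays in the Consortium for Functional Glycomics database, limited to those with an available protein sequence. Binding is reported as a within-array Z-score averaged across arrays of one protein sequence and across linkers.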
# [2] = biological target: GlcNAc(b1-2)Man(a1-3)[GlcNAc(b1-2)Man(a1-6)]Man(b1-4)GlcNAc(b1-4)GlcNAc
# How it was run: as §1
# [3] = biological target: GlcNAc(b1-2)Man(a1-3)[GlcNAc(b1-2)Man(a1-6)]Man(b1-4)GlcNAc(b1-4)[Fuc(a1-6)]GlcNAc
# How it was run: as §1
# [4] = biological target: GlcNAc(b1-2)Man(a1-3)[GlcNAc(b1-4)][GlcNAc(b1-2)Man(a1-6)]Man(b1-4)GlcNAc(b1-4)GlcNAc
# How it was run: as §1
# [5] = biological target: GlcNAc(b1-2)Man(a1-3)[GlcNAc(b1-4)][GlcNAc(b1-2)Man(a1-6)]Man(b1-4)GlcNAc(b1-4)[Fuc(a1-6)]GlcNAc
# How it was run: as §1
# [6] = biological target: GlcNAc(b1-2)[GlcNAc(b1-4)]Man(a1-3)[GlcNAc(b1-2)Man(a1-6)]Man(b1-4)GlcNAc(b1-4)GlcNAc
# How it was run: as §1
# [7] = biological target: GlcNAc(b1-2)[GlcNAc(b1-4)]Man(a1-3)[GlcNAc(b1-4)][GlcNAc(b1-2)Man(a1-6)]Man(b1-4)GlcNAc(b1-4)GlcNAc
# How it was run: as §1
# [8] = biological target: GlcNAc(b1-2)[GlcNAc(b1-4)]Man(a1-3)[GlcNAc(b1-4)][GlcNAc(b1-2)[GlcNAc(b1-6)]Man(a1-6)]Man(b1-4)GlcNAc(b1-4)GlcNAc
# How it was run: as §1
# [9] = biological target: GlcNAc(b1-2)[GlcNAc(b1-4)]Man(a1-3)[GlcNAc(b1-4)][GlcNAc(b1-2)[GlcNAc(b1-6)]Man(a1-6)]Man(b1-4)GlcNAc(b1-4)[Fuc(a1-6)]GlcNAc
# How it was run: as §1
# [10] = biological target: GlcNAc(b1-2)[GlcNAc(b1-6)]Man(a1-6)[GlcNAc(b1-2)Man(a1-3)]Man(b1-4)GlcNAc(b1-4)GlcNAc
# How it was run: as §1
# [11] = biological target: GlcNAc(b1-2)[GlcNAc(b1-6)]Man(a1-6)[GlcNAc(b1-2)Man(a1-3)]Man(b1-4)GlcNAc(b1-4)[Fuc(a1-6)]GlcNAc
# How it was run: as §1
# [12] = biological target: GlcNAc(b1-2)[GlcNAc(b1-6)]Man(a1-6)[GlcNAc(b1-4)][GlcNAc(b1-2)Man(a1-3)]Man(b1-4)GlcNAc(b1-4)GlcNAc
# How it was run: as §1
# GlcNAc(b1-3)Fuc = biological target: GlcNAc(b1-3)Fuc
# How it was run: as §1
# GlcNAc(b1-3)Gal = biological target: GlcNAc(b1-3)Gal
# How it was run: as §1
# [13] = biological target: GlcNAc(b1-3)Gal(b1-3)GalNAc
# How it was run: as §1
# GlcNAc(b1-3)Gal(b1-4)Glc = biological target: GlcNAc(b1-3)Gal(b1-4)Glc
# How it was run: as §1
# [14] = biological target: GlcNAc(b1-3)Gal(b1-4)GlcNAc
# How it was run: as §1
# [15] = biological target: GlcNAc(b1-3)Gal(b1-4)GlcNAc(b1-2)Man(a1-3)[GlcNAc(b1-3)Gal(b1-4)GlcNAc(b1-2)Man(a1-6)]Man(b1-4)GlcNAc(b1-4)GlcNAc
# How it was run: as §1
# [16] = biological target: GlcNAc(b1-3)Gal(b1-4)GlcNAc(b1-2)Man(a1-3)[GlcNAc(b1-3)Gal(b1-4)GlcNAc(b1-2)Man(a1-6)]Man(b1-4)GlcNAc(b1-4)[Fuc(a1-6)]GlcNAc
# How it was run: as §1
# [17] = biological target: GlcNAc(b1-3)Gal(b1-4)GlcNAc(b1-2)[GlcNAc(b1-3)Gal(b1-4)GlcNAc(b1-6)]Man(a1-6)[GlcNAc(b1-3)Gal(b1-4)GlcNAc(b1-2)Man(a1-3)]Man(b1-4)GlcNAc(b1-4)GlcNAc
# How it was run: as §1
# [18] = biological target: GlcNAc(b1-3)Gal(b1-4)GlcNAc(b1-3)Gal(b1-4)GlcNAc
# How it was run: as §1
# [19] = biological target: GlcNAc(b1-3)Gal(b1-4)GlcNAc(b1-3)Gal(b1-4)GlcNAc(b1-2)Man(a1-3)[GlcNAc(b1-3)Gal(b1-4)GlcNAc(b1-3)Gal(b1-4)GlcNAc(b1-2)Man(a1-6)]Man(b1-4)GlcNAc(b1-4)GlcNAc
# How it was run: as §1
# [20] = biological target: GlcNAc(b1-3)Gal(b1-4)GlcNAc(b1-3)Gal(b1-4)GlcNAc(b1-2)Man(a1-3)[GlcNAc(b1-3)Gal(b1-4)GlcNAc(b1-3)Gal(b1-4)GlcNAc(b1-2)Man(a1-6)]Man(b1-4)GlcNAc(b1-4)[Fuc(a1-6)]GlcNAc
# How it was run: as §1
# [21] = biological target: GlcNAc(b1-3)Gal(b1-4)GlcNAc(b1-3)Gal(b1-4)GlcNAc(b1-2)[GlcNAc(b1-3)Gal(b1-4)GlcNAc(b1-3)Gal(b1-4)GlcNAc(b1-6)]Man(a1-6)[GlcNAc(b1-3)Gal(b1-4)GlcNAc(b1-3)Gal(b1-4)GlcNAc(b1-2)Man(a1-3)]Man(b1-4)GlcNAc(b1-4)[Fuc(a1-6)]GlcNAc
# How it was run: as §1
# [22] = biological target: GlcNAc(b1-3)Gal(b1-4)GlcNAc(b1-3)Gal(b1-4)GlcNAc(b1-3)Gal(b1-4)GlcNAc(b1-2)Man(a1-3)[GlcNAc(b1-3)Gal(b1-4)GlcNAc(b1-3)Gal(b1-4)GlcNAc(b1-3)Gal(b1-4)GlcNAc(b1-2)Man(a1-6)]Man(b1-4)GlcNAc(b1-4)GlcNAc
# How it was run: as §1
# [23] = biological target: GlcNAc(b1-3)Gal(b1-4)GlcNAc(b1-3)Gal(b1-4)GlcNAc(b1-3)Gal(b1-4)GlcNAc(b1-2)Man(a1-3)[GlcNAc(b1-3)Gal(b1-4)GlcNAc(b1-3)Gal(b1-4)GlcNAc(b1-3)Gal(b1-4)GlcNAc(b1-2)Man(a1-6)]Man(b1-4)GlcNAc(b1-4)[Fuc(a1-6)]GlcNAc
# How it was run: as §1
# [24] = biological target: GlcNAc(b1-3)Gal(b1-4)GlcNAc(b1-3)Gal(b1-4)GlcNAc(b1-3)Gal(b1-4)GlcNAc(b1-2)[GlcNAc(b1-3)Gal(b1-4)GlcNAc(b1-3)Gal(b1-4)GlcNAc(b1-3)Gal(b1-4)GlcNAc(b1-6)]Man(a1-6)[GlcNAc(b1-3)Gal(b1-4)GlcNAc(b1-3)Gal(b1-4)GlcNAc(b1-3)Gal(b1-4)GlcNAc(b1-2)Man(a1-3)]Man(b1-4)GlcNAc(b1-4)[Fuc(a1-6)]GlcNAc
# How it was run: as §1
# [25] = biological target: GlcNAc(b1-3)Gal(b1-4)GlcNAc(b1-3)Gal(b1-4)GlcNAc(b1-3)Gal(b1-4)GlcNAc(b1-3)Gal(b1-4)GlcNAc(b1-2)Man(a1-3)[GlcNAc(b1-3)Gal(b1-4)GlcNAc(b1-3)Gal(b1-4)GlcNAc(b1-3)Gal(b1-4)GlcNAc(b1-3)Gal(b1-4)GlcNAc(b1-2)Man(a1-6)]Man(b1-4)GlcNAc(b1-4)GlcNAc
# How it was run: as §1
# [26] = biological target: GlcNAc(b1-3)Gal(b1-4)GlcNAc(b1-3)Gal(b1-4)GlcNAc(b1-3)Gal(b1-4)GlcNAc(b1-3)Gal(b1-4)GlcNAc(b1-2)Man(a1-3)[GlcNAc(b1-3)Gal(b1-4)GlcNAc(b1-3)Gal(b1-4)GlcNAc(b1-3)Gal(b1-4)GlcNAc(b1-3)Gal(b1-4)GlcNAc(b1-2)Man(a1-6)]Man(b1-4)GlcNAc(b1-4)[Fuc(a1-6)]GlcNAc
# How it was run: as §1
# [27] = biological target: GlcNAc(b1-3)Gal(b1-4)GlcNAc(b1-3)Gal(b1-4)GlcNAc(b1-3)Gal(b1-4)GlcNAc(b1-3)Gal(b1-4)GlcNAc(b1-2)[GlcNAc(b1-3)Gal(b1-4)GlcNAc(b1-3)Gal(b1-4)GlcNAc(b1-3)Gal(b1-4)GlcNAc(b1-3)Gal(b1-4)GlcNAc(b1-6)]Man(a1-6)[GlcNAc(b1-3)Gal(b1-4)GlcNAc(b1-3)Gal(b1-4)GlcNAc(b1-3)Gal(b1-4)GlcNAc(b1-3)Gal(b1-4)GlcNAc(b1-2)Man(a1-3)]Man(b1-4)GlcNAc(b1-4)[Fuc(a1-6)]GlcNAc
# How it was run: as §1
# [28] = biological target: GlcNAc(b1-3)Gal(b1-4)GlcNAc(b1-3)Gal(b1-4)GlcNAc(b1-3)GalNAc
# How it was run: as §1
# [29] = biological target: GlcNAc(b1-3)Gal(b1-4)GlcNAc(b1-3)GalNAc
# How it was run: as §1
# [30] = biological target: GlcNAc(b1-3)Gal(b1-4)GlcNAc(b1-3)[GlcNAc(b1-3)Gal(b1-4)GlcNAc(b1-3)]GalNAc
# How it was run: as §1
# [31] = biological target: GlcNAc(b1-3)Gal(b1-4)GlcNAc(b1-6)[Gal(b1-3)]GalNAc
# How it was run: as §1
# [32] = biological target: GlcNAc(b1-3)Gal(b1-4)GlcNAc(b1-6)[GlcNAc(b1-3)Gal(b1-3)]GalNAc
# How it was run: as §1
# [33] = biological target: GlcNAc(b1-3)Gal(b1-4)GlcNAc(b1-6)[GlcNAc(b1-3)]Gal(b1-4)GlcNAc
# How it was run: as §1
# GlcNAc(b1-3)GalNAc = biological target: GlcNAc(b1-3)GalNAc
# How it was run: as §1
binder,measurement,setting,value
B1,glycan array binding signal (z-score),[1],0.183
same,glycan array binding signal (z-score),[2],-0.632
same,glycan array binding signal (z-score),[3],0.278
same,glycan array binding signal (z-score),[4],0.119
same,glycan array binding signal (z-score),[5],-0.856
same,glycan array binding signal (z-score),[6],-0.164
same,glycan array binding signal (z-score),[7],1.4
same,glycan array binding signal (z-score),[8],-0.497
same,glycan array binding signal (z-score),[9],-0.276
same,glycan array binding signal (z-score),[10],0.491
same,glycan array binding signal (z-score),[11],0.105
same,glycan array binding signal (z-score),[12],0.023
same,glycan array binding signal (z-score),GlcNAc(b1-3)Fuc,-0.224
same,glycan array binding signal (z-score),GlcNAc(b1-3)Gal,0.036
same,glycan array binding signal (z-score),[13],0.447
same,glycan array binding signal (z-score),GlcNAc(b1-3)Gal(b1-4)Glc,0.444
same,glycan array binding signal (z-score),[14],-0.114
same,glycan array binding signal (z-score),[15],0.117
same,glycan array binding signal (z-score),[16],1.08
same,glycan array binding signal (z-score),[17],0.052
same,glycan array binding signal (z-score),[18],0.712
same,glycan array binding signal (z-score),[19],0.747
same,glycan array binding signal (z-score),[20],1.82
same,glycan array binding signal (z-score),[21],0.595
same,glycan array binding signal (z-score),[22],-0.182
same,glycan array binding signal (z-score),[23],1.31
same,glycan array binding signal (z-score),[24],0.082
same,glycan array binding signal (z-score),[25],0.062
same,glycan array binding signal (z-score),[26],0.09
same,glycan array binding signal (z-score),[27],1.39
same,glycan array binding signal (z-score),[28],-0.909
same,glycan array binding signal (z-score),[29],0.654
same,glycan array binding signal (z-score),[30],0.426
same,glycan array binding signal (z-score),[31],-0.359
same,glycan array binding signal (z-score),[32],-0.248
same,glycan array binding signal (z-score),[33],-0.8
same,glycan array binding signal (z-score),GlcNAc(b1-3)GalNAc,-0.231

# An excerpt from further up, as a working copy:
binder,measurement,setting,value
B1,glycan array binding signal (z-score),[29],0.654
same,glycan array binding signal (z-score),[30],0.426

# — the supplement of paper PMC8728848
